For test [1], the target named is TRAPPC11 (Drosophila melanogaster). Put plainly: cross-linking.
Test [2] shares this target. Description: co-purification of co-expressed subunits.
Test [3] shares this target. Put plainly: cryo-EM structure.
The target is the same in test [4]. Put plainly: SEC-MALS + other: interferometric scattering microscopy. A general note: In gel filtration, larger molecules generally elute earlier.

No constants are given. Whether binding was seen depends on the method and setting. Binding can be weak; no strength is given. For some of these results: Binding seen in cells or lysates may run through a third protein.

B1: TRAPPC13 (protein, UniProt Q95TN1 1-438)
chain: MEMVEPDAHLVALKVMRLMRPTLVGLGPVVTCEPTDLVQRFSSSQESDGMSGACAETLAAGQVLLLPQSFGSIYLGETFASYICVHNTTPNPVECVTVKADLQSNTSRINLSMHENAKSPVVLPPGGTIDDVIRYEVKEIGTHILVCEVNYSTPAGYAQSLRKFFKFQVLKPLDVKTKFYNAEIDEIYLEAQIQNVTTSPFCLEKVELDGSEDYSVTPLNTLPNGESVFTVKHMLQPNNSCQFLYCIKPKGDIAKNVDTLRQFNNVGKLDIVWRSNLGEKGRLQTSQLQRLPFECKTLRLEVLDAKNTIKIGTIFTFNCRVTNTSEHPMKLNVRLAAKFSPDSQYTGCADFMLNLLQSGESAEFPLSVCPSKLGLVKITPLVLTNTLQNEQFTIENVVDVFVVNSDYDNDTTTHQNKLIRYESAASCLTQKQVQLQVV
In the case of B1, the binding result in test [1], in test [2] and in test [3] was “binds” in each case.

B2: TRAPPC2 (protein, UniProt Q9VUZ1 1-139)
chain: MSTYYFVIVGQNDNPIYEKEFSTVNKELRKEDHRHLTQFIAHAALDLVDEHKWKTANMQLKSIDRFNQWFVSAFITASQIRFIIVHDNKNDEGIKNFFNEMYDTYIKNSMNAFYRINTPIKSPMFEKKSEIFGRKYLLS
In the case of B2, the binding entry in test [4] was “binds”.
